Source: the supplement of paper PMC4635364
Where a name gives a salt, the structure may show the parent alone. This is one part of the list. Single values are uncertain here, since repeats match poorly.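 ReNCell VM, a human fetal ventral-midbrain neural progenitor line, was differentiated without mitogens. Blinded raters scored images stained for doublecortin (early neurons) or tyrosine hydroxylase (dopaminergic neurons) against untreated wells (0 = no change). Scores were averaged across repeats and both raters, and compounds averaging 2 or more were selected as hits for retesting.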

What was measured:
ReNCell VM [1] = assay: neuronal differentiation score (DCX+ cell fraction vs untreated, manual image score) (score (-3 to 3)); higher = more neuronal differentiation; conditions: 2 uM, 2 weeks
ReNCell VM [2] = assay: dopaminergic neuron differentiation score (TH+ cell fraction vs untreated, manual image score) (score (0 to 3)); higher = more TH+ dopaminergic neuron differentiation; conditions: 2 uM, 4 weeks, BDNF 10 ng/ml + GDNF 10 ng/ml

## Nc1ncnc2c1ncn2[C@@H]1O[C@H](CO)[C@@H](O)[C@@H]1O
ReNCell VM [1]; library: Spectrum
  neuronal differentiation score: inactive: 0
ReNCell VM [2]; library: Spectrum
  dopaminergic neuron differentiation score: inactive: 0

## COc1cc2c(cc1OC)OC(C)(C)C=C2 [Precocene 2]
ReNCell VM [1]; library: Phytochemical
  neuronal differentiation score: inactive: 0
ReNCell VM [2]; library: Phytochemical
  dopaminergic neuron differentiation score: inactive: 0

## NC[C@H]1O[C@H](O[C@H]2[C@H](O[C@@H]3O[C@H](CO)[C@@H](O)[C@H]3O)[C@@H](O)[C@H](N)C[C@@H]2N)[C@H](N)[C@@H](O)[C@@H]1O [Ribostamycin sulfate salt]
ReNCell VM [1]; library: Prestwick
  neuronal differentiation score: inactive: 0
ReNCell VM [2]; library: Prestwick
  dopaminergic neuron differentiation score: inactive: 0

## C[C@](N)(Cc1ccc(O)cc1)C(=O)O [L-alpha-Methyl-p-tyrosine]
ReNCell VM [1]; library: LOPAC
  neuronal differentiation score: inactive: 0
ReNCell VM [2]; library: LOPAC
  dopaminergic neuron differentiation score: inactive: 0

## CN(C)CCCN1c2ccccc2CCc2ccc(Cl)cc21
ReNCell VM [1]; library: Spectrum
  neuronal differentiation score: inactive: -1
ReNCell VM [2]; library: Spectrum
  dopaminergic neuron differentiation score: inactive: 0

## C[C@H]1O[C@H](O[C@H]2[C@H](O)[C@@H](O)[C@@H](O[C@H]3[C@H](O)[C@@H](O)C(O)O[C@@H]3CO)O[C@@H]2CO)[C@H](O)[C@@H](O)[C@@H]1N[C@H]1C=C(CO)[C@@H](O)[C@H](O)[C@H]1O (some centres undefined)
ReNCell VM [1]; library: Spectrum
  neuronal differentiation score: inactive: 0
ReNCell VM [2]; library: Spectrum
  dopaminergic neuron differentiation score: inactive: 0

## O=C(O)CCCc1ccccc1
ReNCell VM [1]; library: Spectrum
  neuronal differentiation score: inactive: 0
ReNCell VM [2]; library: Spectrum
  dopaminergic neuron differentiation score: inactive: 0

## CN(C)CCC(c1ccc(Cl)cc1)c1ccccn1 (single isomer, unassigned; (+)) [(+)-Chlorpheniramine maleate]
ReNCell VM [1]; library: LOPAC
  neuronal differentiation score: inactive: 0
ReNCell VM [2]; library: LOPAC
  dopaminergic neuron differentiation score: inactive: 0

## COc1c(C)c2c(c(O)c1C/C=C(\C)CCC(=O)O)C(=O)OC2
ReNCell VM [1]; library: Spectrum
  neuronal differentiation score: inactive: 0
ReNCell VM [2]; library: Spectrum
  dopaminergic neuron differentiation score: inactive: 0

## O=C(O)c1cccnc1 [Nicotinic acid]
ReNCell VM [1]; library: Phytochemical
  neuronal differentiation score: inactive: 0
ReNCell VM [2]; library: Phytochemical
  dopaminergic neuron differentiation score: inactive: 0

## O=c1cc(-c2ccccc2)oc2ccc(O)cc12
ReNCell VM [1]; library: Spectrum
  neuronal differentiation score: inactive: 0
ReNCell VM [2]; library: Spectrum
  dopaminergic neuron differentiation score: inactive: 0

## CC(C)c1c(C(=O)Nc2ccccc2)c(-c2ccccc2)c(-c2ccc(F)cc2)n1CC[C@@H](O)C[C@@H](O)CC(=O)O [Atorvastatin]
ReNCell VM [1]; library: Prestwick
  neuronal differentiation score: inactive: 0
ReNCell VM [2]; library: Prestwick
  dopaminergic neuron differentiation score: inactive: 0

## CC[N+](CC)(CC)CCOc1cccc(OCC[N+](CC)(CC)CC)c1OCC[N+](CC)(CC)CC
ReNCell VM [1]; library: Spectrum
  neuronal differentiation score: inactive: 0
ReNCell VM [2]; library: Spectrum
  dopaminergic neuron differentiation score: inactive: 0

## N=C(N)NC(=O)Cc1c(Cl)cccc1Cl
ReNCell VM [1]; library: Spectrum
  neuronal differentiation score: inactive: 0
ReNCell VM [2]; library: Spectrum
  dopaminergic neuron differentiation score: inactive: 0

## N=C(N)NC(=N)N1CCOCC1
ReNCell VM [1]; library: Spectrum
  neuronal differentiation score: inactive: 0
ReNCell VM [2]; library: Spectrum
  dopaminergic neuron differentiation score: inactive: 0

## C[C@H]1O[C@@H](O[C@H]2[C@@H](O)C[C@H](O[C@H]3[C@@H](O)C[C@H](O[C@H]4CC[C@@]5(C)[C@H](CC[C@@H]6[C@@H]5C[C@@H](O)[C@]5(C)[C@@H](C7=CC(=O)OC7)CC[C@]65O)C4)O[C@@H]3C)O[C@@H]2C)C[C@H](O)[C@@H]1O [Digoxin]
ReNCell VM [1]; library: Prestwick
  neuronal differentiation score: inactive: 0
ReNCell VM [2]; library: Prestwick
  dopaminergic neuron differentiation score: inactive: 0

## CN(C)CC/C=C1/c2ccccc2Sc2ccc(Cl)cc21
ReNCell VM [1]; library: Spectrum
  neuronal differentiation score: inactive: 0
ReNCell VM [2]; library: Spectrum
  dopaminergic neuron differentiation score: inactive: 0

## Cn1cnc2c1c(=O)[nH]c(=O)n2C
ReNCell VM [1]; library: Spectrum
  neuronal differentiation score: inactive: 0
ReNCell VM [2]; library: Spectrum
  dopaminergic neuron differentiation score: inactive: 0

## CC(=O)c1cc2ccccc2oc1=O [3-Acetylcoumarin]
ReNCell VM [1]; library: Phytochemical
  neuronal differentiation score: inactive: 0
ReNCell VM [2]; library: Phytochemical
  dopaminergic neuron differentiation score: inactive: 0

## S=C(Nc1ccccc1)Nc1nccs1 [1-Phenyl-3-(2-thiazolyl)-2-thiourea]
ReNCell VM [1]; library: LOPAC
  neuronal differentiation score: inactive: 0
ReNCell VM [2]; library: LOPAC
  dopaminergic neuron differentiation score: inactive: 0

## CSC(=N)NCCC[C@H](N)C(=O)O [S-Methyl-L-thiocitrulline acetate]
ReNCell VM [1]; library: LOPAC
  neuronal differentiation score: inactive: 0
ReNCell VM [2]; library: LOPAC
  dopaminergic neuron differentiation score: inactive: 0

## Cc1c(N(C)CS(=O)(=O)O)c(=O)n(-c2ccccc2)n1C
ReNCell VM [1]; library: Spectrum
  neuronal differentiation score: inactive: 0
ReNCell VM [2]; library: Spectrum
  dopaminergic neuron differentiation score: inactive: 0

## Cc1cc(O)cc(=O)o1
ReNCell VM [1]; library: Spectrum
  neuronal differentiation score: inactive: 0
ReNCell VM [2]; library: Spectrum
  dopaminergic neuron differentiation score: inactive: 0

## CC1(C)C=Cc2cc3ccc(=O)oc3cc2O1
ReNCell VM [1]; library: Spectrum
  neuronal differentiation score: inactive: 0
ReNCell VM [2]; library: Spectrum
  dopaminergic neuron differentiation score: inactive: 0

## CCc1cc2c(c(CC)n1)CCC(=O)N2Cc1ccc(-c2ccccc2-c2nn[nH]n2)cc1 [ZD 7155 hydrochloride]
ReNCell VM [1]; library: Tocriscreen
  neuronal differentiation score: inactive: 0
ReNCell VM [2]; library: Tocriscreen
  dopaminergic neuron differentiation score: inactive: 0

## CN1CCN(c2nc3cc(C(F)(F)F)ccc3n3cccc23)CC1
ReNCell VM [1]; library: LOPAC
  neuronal differentiation score: active: 2
ReNCell VM [2]; library: LOPAC
  dopaminergic neuron differentiation score: inactive: 0

## OC[C@H]1O[C@@H](n2cnc3c(Nc4ccccc4)ncnc32)[C@H](O)[C@@H]1O [N6-Phenyladenosine]
ReNCell VM [1]; library: LOPAC
  neuronal differentiation score: inactive: 0
ReNCell VM [2]; library: LOPAC
  dopaminergic neuron differentiation score: inactive: 0

## O=c1cc(-c2ccccc2)[nH]c2nc(Cl)ccc12 [7-Chloro-4-hydroxy-2-phenyl-1,8-naphthyridine]
ReNCell VM [1]; library: LOPAC
  neuronal differentiation score: inactive: 0
ReNCell VM [2]; library: LOPAC
  dopaminergic neuron differentiation score: inactive: 0

## CN1CCN(c2c(F)cc3c(=O)c(C(=O)O)cn4c3c2SCC4)CC1
ReNCell VM [1]; library: Spectrum
  neuronal differentiation score: inactive: 0
ReNCell VM [2]; library: Spectrum
  dopaminergic neuron differentiation score: inactive: 0

## Cc1cnc(NC(=O)C2=C(O)c3ccccc3S(=O)(=O)N2C)s1 [Meloxicam]
ReNCell VM [1]; library: Prestwick
  neuronal differentiation score: inactive: 0
ReNCell VM [2]; library: Prestwick
  dopaminergic neuron differentiation score: inactive: 0

## C[C@H]1[C@H](OC(=O)CCC(=O)O)O[C@@H]2O[C@@]3(C)CC[C@H]4[C@H](C)CC[C@@H]1[C@@]24OO3
ReNCell VM [1]; library: Spectrum
  neuronal differentiation score: inactive: 0
ReNCell VM [2]; library: Spectrum
  dopaminergic neuron differentiation score: inactive: 0

## COc1ccc2c(c1)CC[C@@H]1[C@@H]2CC[C@]2(C)[C@@H](O)CC[C@@H]12
ReNCell VM [1]; library: Spectrum
  neuronal differentiation score: inactive: 0
ReNCell VM [2]; library: Spectrum
  dopaminergic neuron differentiation score: inactive: 0
